Consider 69 variants from the supplement of paper PMC7125110.

± gives the standard error. Many of these values have a large error. Bounds are passed on as bounds.

Sequences and labels used below:
B1: glmS ribozyme (parent)
chain: AUAAAAGCGCCAGAACUACAGAAAUGUAGUUGACGAGGAGGAGGUUUAUCGAAUUUUCGGCGGAUGCCUCCAAA

The variants in one data set derive from B1. In words: kcat; higher = faster cleavage; RNA array. Particulars: with glucosamine-6-phosphate. The method in brief:
(§1)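 Over ~14 h at 37 °C, tiles were imaged as glucosamine-6-phosphate (40 μM to 10 mM) in HEPES/KCl/Mg(OAc)2 buffer flowed across sequenced MiSeq chips. The chips carried barcoded ribozyme variants transcribed in situ by E. coli RNA polymerase and tracked with a hybridised Cy3 probe. After normalisation to baseline and to non-cleaving reference variants, one- or two-exponential decay fits of per-tile medians gave kobs. kcat and KM followed from weighted Michaelis–Menten fits across concentrations.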
The term kcat denotes the maximal rate divided by the concentration of active sites. On to C16G A39C, for which the kcat came to 0.000798 ± 6e-05 s⁻¹.

Turning to G32A C71U, the kcat came to 0.00395 ± 0.001 s⁻¹.

As for A15C U57A C67G, the kcat was determined as 3.31e-05 ± 1.8e-05 s⁻¹.

Take U30A U56G: the turnover number (kcat) was 0.00495 ± 0.0034 s⁻¹.

On to U31C U69C, for which the kcat came out at 0.00106 ± 0.00057 s⁻¹.

With G37A U47G U55G, the kcat is 0.000459 ± 0.00013 s⁻¹.

As for G37A U45C, the kcat came to 0.000199 ± 0.00011 s⁻¹.

On to G37C C61G, for which the kcat is less than 1e-05 s⁻¹.

Regarding U31A G32A, the kcat is 0.00184 ± 0.00083 s⁻¹.

As to A52G G66A, the turnover number (kcat) was 0.000403 ± 0.00026 s⁻¹.

On to G32U G63C C71G, for which the kcat is 6.29e-05 ± 4.6e-05 s⁻¹.

In the case of C58U G62A C68G, the kcat came to 2.81e-05 ± 1.9e-05 s⁻¹.

As to A14C C16G, the kcat amounted to 8.6e-05 ± 5.5e-06 s⁻¹.

Consider C16A G51U U69G, for which the kcat came out at 6.68e-05 ± 4.7e-05 s⁻¹.

For the variant A53U C71A, the kcat was determined as 0.00637 ± 0.0044 s⁻¹.

Take A52C U69G: the kcat is 3.13e-05 ± 2.2e-05 s⁻¹.

Turning to A33U A53U U69G, the catalytic constant (kcat) was 4.06e-05 ± 2.5e-05 s⁻¹.

A53U C67G: the kcat is 0.00417 ± 0.0027 s⁻¹.

With U49A A53U, the kcat worked out at 1.3e-05 ± 8.1e-06 s⁻¹.

Take U47C C58U: the kcat was determined as 0.000109 ± 7.3e-06 s⁻¹.

Turning to A52U C71U, the kcat worked out at 0.000457 ± 4e-05 s⁻¹.

In the case of U54G C67G, the kcat stood at 0.000283 ± 0.00028 s⁻¹.

Regarding A36C U54A, the kcat was less than 1e-05 s⁻¹.

Take A15G C16G A42G C67G: the kcat worked out at 0.000168 ± 0.00011 s⁻¹.

Turning to G29U U69G, the kcat turned out to be 5.24e-05 ± 1.4e-05 s⁻¹.

Turning to C50U G59U U69A C70G, the kcat is 5.72e-05 ± 5.5e-05 s⁻¹.

Turning to A14G G29C U56A, the kcat was 0.00138 ± 0.00036 s⁻¹.

Take A42G A48C: the kcat turned out to be 0.00074 ± 0.00011 s⁻¹.

Regarding U65A C70U, the kcat was determined as 0.00439 ± 0.0025 s⁻¹.

Turning to A33G A36U, the kcat is 1.1e-05 ± 6.8e-06 s⁻¹.

As for A48C C67G C68A, the turnover number (kcat) is 4.67e-05 ± 2.4e-05 s⁻¹.

As to A14G U47G, the kcat was found to be 0.0391 ± 0.033 s⁻¹.

Regarding U57G G66U, the kcat was 1.52e-05 ± 8.3e-06 s⁻¹.

As to A14U G37A A52G C68G, the kcat amounted to 1.04e-05 ± 7.2e-06 s⁻¹.

For A39U A48C, the kcat came out at 0.000221 ± 2.1e-05 s⁻¹.

For the variant G37A A53G, the kcat was determined as 0.00824 ± 0.0053 s⁻¹.

Variants of B1 are the subject of another data set. In words: KM; higher = weaker cofactor use; RNA array. Particulars: with glucosamine-6-phosphate. A digest of the protocol: as §1
As usually defined, the KM is the substrate concentration at which the rate is half of its maximum. Regarding C16G A39C, the KM stood at 2400 ± 310 µM.

As for G32A C71U, the KM came out at 4470 ± 1500 µM.

Consider A14C U49G, for which the KM turned out to be 6690 ± 570 µM.

As for U30A U56G, the KM amounted to 2980 ± 2600 µM.

For the variant C11U G37U, the KM is 67.6 ± 58 µM.

As for U31C U69C, the KM was 2610 ± 2100 µM.

Take A6U U30C: the KM came to 29.4 ± 16 µM.

For the variant A15U G29A, the KM came out at 5560 ± 3500 µM.

As for G37A U47G U55G, the Michaelis-Menten constant (KM) amounted to 2730 ± 1400 µM.

On to C11A A39U, for which the KM is 2430 ± 1200 µM.

For the variant G37A U45C, the KM amounted to 3830 ± 3500 µM.

G13A G32C: the KM amounted to 6080 ± 3300 µM.

With C11U U30G, the KM came out at 1720 ± 910 µM.

As to U31A G32A, the KM is 5430 ± 3400 µM.

Take G13A U57C: the Michaelis-Menten constant (KM) is 4540 ± 780 µM.

C11A G29U: the KM was found to be 597 ± 430 µM.

Turning to A14C G44U, the KM came out at 1330 ± 1100 µM.

With G7A A39G, the Michaelis constant (KM) amounted to 105000 ± 25000 µM.

For G13U U46A, the Michaelis-Menten constant (KM) turned out to be 479 ± 200 µM.

Take A14C C16G: the KM worked out at 438 ± 180 µM.

Consider A6G A15U, for which the KM amounted to 936 ± 570 µM.

As for C11G U55A, the Michaelis-Menten constant (KM) came to 37.7 ± 30 µM.

Consider A53U C71A, for which the KM turned out to be 3120 ± 2900 µM.

Consider G7A A53U, for which the KM is 8600 ± 6700 µM.

Turning to G13A G41U, the KM worked out at 11800 ± 3000 µM.

As to G13A G41A, the KM was 1770 ± 270 µM.

Take C11A U56G: the KM was determined as 1410 ± 990 µM.

As to A53U C67G, the KM came out at 9980 ± 9400 µM.

For the variant A15C G32U, the KM is 6690 ± 540 µM.

On to U47C C58U, for which the KM is 12300 ± 1400 µM.

A14U U46C: the KM came out at 956 ± 430 µM.

Consider A14U U46A, for which the KM stood at 2000 ± 930 µM.

On to C11A U54G, for which the KM came out at 2170 ± 1300 µM.

On to A52U C71U, for which the KM is 2130 ± 390 µM.

For A12U C70A, the KM stood at 282 ± 140 µM.

As to A12U C16A U56A, the KM came out at 850 ± 560 µM.

Take A14G G29C U56A: the KM is 1960 ± 970 µM.

A42G A48C: the KM was found to be 4500 ± 1200 µM.

For the variant U65A C70U, the KM was 2130 ± 1500 µM.

As for A14G G60C, the KM came to 2710 ± 2600 µM.

For the variant A14U C71U, the KM amounted to 2360 ± 1400 µM.

With C11A A15G C16A G29U, the Michaelis-Menten constant (KM) worked out at 2210 ± 1100 µM.

Take U57G G66U: the KM came out at 12100 ± 11000 µM.

A12C U46G: the KM was 1950 ± 600 µM.

For C10A A12U C71U, the KM is 21.5 ± 9.2 µM.

For the variant C11A U30G G60A, the KM came to 18.4 ± 16 µM.

For G13C G43U C67A, the KM came out at 32600 ± 21000 µM.

Regarding A39U A48C, the KM is 836 ± 370 µM.

For G37A A53G, the KM is 6050 ± 4500 µM.

On to A12C A64C, for which the Michaelis-Menten constant (KM) amounted to 4850 ± 770 µM.

Take G13C U47A G59U C67G: the Michaelis constant (KM) came to 511 ± 310 µM.

The variants in the next data set derive from B1. In words: self-cleavage kobs at 40 uM GlcN6P; higher = faster cleavage; RNA array. Particulars: with glucosamine-6-phosphate. A digest of the protocol:
as §1
C16G A39C: the “self-cleavage kobs at 40 uM GlcN6P” value turned out to be 1.31e-05 ± 1.1e-05 s⁻¹.

Turning to U30A U56G, the “self-cleavage kobs at 40 uM GlcN6P” value is 6.91e-05 ± 3.7e-05 s⁻¹.

For A15U G29A, the “self-cleavage kobs at 40 uM GlcN6P” value is 2.42e-05 ± 1.2e-05 s⁻¹.

Take U31A G32A: the “self-cleavage kobs at 40 uM GlcN6P” value worked out at 1.69e-05 ± 1.3e-05 s⁻¹.

In the next data set the parent is B1. In words: self-cleavage kobs at 10000 uM GlcN6P; higher = faster cleavage; RNA array. Particulars: with glucosamine-6-phosphate. The method in brief: as §1
For U30A U56G, the “self-cleavage kobs at 10000 uM GlcN6P” value came out at 0.00943 ± 0.0064 s⁻¹.

Regarding G13A G41U, the “self-cleavage kobs at 10000 uM GlcN6P” value was found to be 2.63e-05 ± 2e-05 s⁻¹.

In the next data set the parent is B1. In words: self-cleavage kobs at 2500 uM GlcN6P; higher = faster cleavage; RNA array. Particulars: with glucosamine-6-phosphate. The method in brief: as §1
Regarding A53U C71A, the “self-cleavage kobs at 2500 uM GlcN6P” value was found to be 0.00903 ± 0.0054 s⁻¹.

On to U47C C58U, for which the “self-cleavage kobs at 2500 uM GlcN6P” value was found to be 1.87e-05 ± 9.7e-06 s⁻¹.

For A48C C67G C68A, the “self-cleavage kobs at 2500 uM GlcN6P” value is 5.35e-05 ± 2.8e-05 s⁻¹.

In another data set the parent is B1. As to the kind of experiment: self-cleavage kobs at 640 uM GlcN6P; higher = faster cleavage; RNA array. Particulars: with glucosamine-6-phosphate. The method in brief:
as §1
Consider C11A U54G, for which the “self-cleavage kobs at 640 uM GlcN6P” value is 0.00999 ± 0.007 s⁻¹.

A48C C67G C68A: the “self-cleavage kobs at 640 uM GlcN6P” value came to 0.000273 ± 0.00015 s⁻¹.

As to A39U A48C, the “self-cleavage kobs at 640 uM GlcN6P” value was 0.00523 ± 0.004 s⁻¹.

For the variant A12C A64C, the “self-cleavage kobs at 640 uM GlcN6P” value was found to be 2.26e-05 ± 1.2e-05 s⁻¹.

In the next data set the parent is B1. As to the kind of experiment: self-cleavage kobs at 160 uM GlcN6P; higher = faster cleavage; RNA array. Particulars: with glucosamine-6-phosphate. A digest of the protocol:
as §1
For C11A U54G, the “self-cleavage kobs at 160 uM GlcN6P” value worked out at 2.05e-05 ± 1.7e-05 s⁻¹.

In the case of A52U C71U, the “self-cleavage kobs at 160 uM GlcN6P” value was determined as 2.47e-05 ± 1.7e-05 s⁻¹.

A48C C67G C68A: the “self-cleavage kobs at 160 uM GlcN6P” value was determined as 3.85e-05 ± 1.9e-05 s⁻¹.

As for A39U A48C, the “self-cleavage kobs at 160 uM GlcN6P” value worked out at 2.6e-05 ± 1.4e-05 s⁻¹.
